These results are taken from PMC6761206.

Amino acid sequences for entries named in this document (tags omitted). A change or cut given only in a name is not applied to a line headed by its entry.
UniProt Q9HAU4: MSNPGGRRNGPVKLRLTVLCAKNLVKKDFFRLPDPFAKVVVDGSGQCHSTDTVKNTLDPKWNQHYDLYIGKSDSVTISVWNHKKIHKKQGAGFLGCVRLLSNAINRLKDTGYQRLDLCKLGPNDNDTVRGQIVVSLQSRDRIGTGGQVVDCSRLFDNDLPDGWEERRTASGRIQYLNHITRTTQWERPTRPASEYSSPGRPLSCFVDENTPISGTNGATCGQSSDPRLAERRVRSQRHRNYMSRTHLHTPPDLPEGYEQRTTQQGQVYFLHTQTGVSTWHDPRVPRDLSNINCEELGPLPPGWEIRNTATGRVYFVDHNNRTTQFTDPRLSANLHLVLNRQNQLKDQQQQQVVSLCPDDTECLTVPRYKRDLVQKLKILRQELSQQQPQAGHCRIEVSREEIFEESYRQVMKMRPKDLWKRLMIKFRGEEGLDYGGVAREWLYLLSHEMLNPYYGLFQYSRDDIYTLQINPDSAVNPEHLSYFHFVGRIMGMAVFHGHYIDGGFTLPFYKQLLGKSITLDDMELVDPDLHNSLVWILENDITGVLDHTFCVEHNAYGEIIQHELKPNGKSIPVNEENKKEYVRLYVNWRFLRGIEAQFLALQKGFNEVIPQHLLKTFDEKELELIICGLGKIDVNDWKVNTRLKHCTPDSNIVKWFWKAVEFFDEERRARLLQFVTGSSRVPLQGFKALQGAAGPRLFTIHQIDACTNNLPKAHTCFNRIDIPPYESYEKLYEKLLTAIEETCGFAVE
UniProt O15105: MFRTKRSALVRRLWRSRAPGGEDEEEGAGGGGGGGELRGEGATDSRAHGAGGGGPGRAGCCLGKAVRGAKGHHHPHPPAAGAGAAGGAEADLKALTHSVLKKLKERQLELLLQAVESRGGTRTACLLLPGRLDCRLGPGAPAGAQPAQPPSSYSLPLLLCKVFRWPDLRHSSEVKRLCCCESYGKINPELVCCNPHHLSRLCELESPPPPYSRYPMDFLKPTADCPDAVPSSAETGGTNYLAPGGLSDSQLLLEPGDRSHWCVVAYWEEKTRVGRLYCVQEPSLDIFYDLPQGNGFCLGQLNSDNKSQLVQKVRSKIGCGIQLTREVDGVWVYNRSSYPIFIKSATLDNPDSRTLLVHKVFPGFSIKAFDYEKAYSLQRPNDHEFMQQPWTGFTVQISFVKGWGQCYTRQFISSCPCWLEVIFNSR

Assay [1] addresses MYC-tagged SMURF2(FF), Y314F/Y434F (UniProt Q9HAU4). The assay is described as follows: co-IP; 293T cells transfected with MYC-tagged SMURF2 or mutants and Flag-tagged SMAD7 and/or Flag-tagged c-SRC; lysed after 48 h in ELB (250 mM NaCl, 0.5% NP-40, 50 mM HEPES pH 7.3); immunoprecipitated with anti-MYC (affinity resin); immunoblot. Background: A western blot detects proteins with antibodies after separation by electrophoresis.

The target in assay [2] is MYC-tagged SMURF2, wild type (UniProt Q9HAU4). The description is as above.

No constants are given. Whether binding was seen depends on the method and setting. Binding seen in cells or lysates may run through a third protein. Some binding calls cover weakened binding; strength is not graded here.

Consider “FLAG-tagged SMAD7 (from UniProt O15105 1-426)”, for which the binding result in assay [1] and in assay [2] was “binds” each time.
